# From publication doi:10.1101/089201
# By UniProt entry, the sequences of proteins in these tests, tags left out.
# UniProt Q80TZ9, whole entry: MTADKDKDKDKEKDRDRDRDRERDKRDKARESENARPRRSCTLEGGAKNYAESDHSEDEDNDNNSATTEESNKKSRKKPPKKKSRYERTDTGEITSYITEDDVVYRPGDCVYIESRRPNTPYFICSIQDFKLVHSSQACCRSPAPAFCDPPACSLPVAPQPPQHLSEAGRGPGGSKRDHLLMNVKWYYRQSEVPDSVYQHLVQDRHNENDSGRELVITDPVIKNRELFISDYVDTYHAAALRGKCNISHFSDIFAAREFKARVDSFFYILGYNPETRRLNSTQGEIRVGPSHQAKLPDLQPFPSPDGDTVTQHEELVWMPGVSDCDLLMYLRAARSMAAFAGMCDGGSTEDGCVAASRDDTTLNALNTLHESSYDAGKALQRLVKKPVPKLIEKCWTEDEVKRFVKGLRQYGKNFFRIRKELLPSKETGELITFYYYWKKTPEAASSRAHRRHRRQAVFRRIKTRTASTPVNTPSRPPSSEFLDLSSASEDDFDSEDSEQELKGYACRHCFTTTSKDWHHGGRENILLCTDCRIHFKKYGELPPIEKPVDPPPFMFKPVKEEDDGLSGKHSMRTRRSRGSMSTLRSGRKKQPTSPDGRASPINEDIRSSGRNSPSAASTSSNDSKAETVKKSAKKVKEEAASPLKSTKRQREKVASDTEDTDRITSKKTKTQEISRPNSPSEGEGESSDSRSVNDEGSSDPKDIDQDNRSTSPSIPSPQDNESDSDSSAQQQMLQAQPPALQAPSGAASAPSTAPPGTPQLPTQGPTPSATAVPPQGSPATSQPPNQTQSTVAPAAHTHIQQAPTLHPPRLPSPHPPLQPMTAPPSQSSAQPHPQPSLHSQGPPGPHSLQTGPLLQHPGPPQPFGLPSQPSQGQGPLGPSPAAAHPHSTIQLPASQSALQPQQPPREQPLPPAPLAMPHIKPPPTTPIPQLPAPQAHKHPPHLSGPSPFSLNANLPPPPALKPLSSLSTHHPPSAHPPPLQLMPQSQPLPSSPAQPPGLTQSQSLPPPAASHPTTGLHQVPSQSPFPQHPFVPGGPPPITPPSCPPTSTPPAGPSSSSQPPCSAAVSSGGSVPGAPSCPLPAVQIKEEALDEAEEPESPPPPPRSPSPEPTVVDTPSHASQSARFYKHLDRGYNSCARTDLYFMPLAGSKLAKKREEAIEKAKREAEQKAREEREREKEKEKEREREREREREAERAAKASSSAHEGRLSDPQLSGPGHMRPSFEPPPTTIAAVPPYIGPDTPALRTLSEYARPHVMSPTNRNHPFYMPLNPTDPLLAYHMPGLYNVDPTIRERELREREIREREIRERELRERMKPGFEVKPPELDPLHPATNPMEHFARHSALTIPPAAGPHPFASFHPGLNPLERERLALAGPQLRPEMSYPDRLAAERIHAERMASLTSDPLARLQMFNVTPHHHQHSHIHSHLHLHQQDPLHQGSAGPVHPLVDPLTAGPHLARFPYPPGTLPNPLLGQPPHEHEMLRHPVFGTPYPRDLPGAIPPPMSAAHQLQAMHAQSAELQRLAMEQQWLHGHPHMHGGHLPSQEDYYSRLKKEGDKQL
# No constants are given. Whether binding was seen depends on the method and setting. In cells and extracts the contact can be indirect. Here binding means that the protein was enriched with, or labelled near, the bait; the list need not be complete.
# Molecular target: Rere-HA (UniProt Q80TZ9)
# Assay: affinity purification with mass spectrometry
row,binding,Substance
1,binds,Ehmt2 (from UniProt Q9Z148 1-1263)
2,binds,Hdac1 (from UniProt O09106 1-482)
3,binds,Hdac2 (from UniProt P70288 1-488)
